Patent US7893197B2, “Relaxin-3 chimeric polypeptides and their preparation and use” (Janssen Pharmaceutica N.V., priority 2005, dated 2011)

Test system: GPCR135-like binding sites in rat brain
Assay: Radioligand autoradiography on rat brain sagittal sections
Details: 5 pM radioligand; non-specific binding with 100 nM unlabeled relaxin-3

| Substance | total versus non-specific binding on rat brain section, in words |
| --- | --- |
| [^125I]-R3/I5: radioiodinated R3/I5 chimera used as tracer (RAAPYGVRLCGREFIRAVIFTCGGSRWQDLQTLCCTDGCSMTDLSALC) | the non-specific binding was reduced |
| [^125I]-relaxin-3: radioiodinated human relaxin-3 used as tracer (RAAPYGVRLCGREFIRAVIFTCGGSRWDVLAGLSSSCCKWGCSKSEISSLC) [reference compound] | no substantial difference between total binding and non-specific binding |
